Measured values reported in patent publication US20060216299A1, “Cell cycle targets and peptides” (Rigel Pharmaceuticals, Inc., priority 2002, published 2006).

system: A549 cell lysates; assay: Affinity extraction with biotinylated peptides; MALDI-TOF MS, LC/MS/MS, Western blotting; type: binding, human; settings: biotinylated peptide against inactive mutant control

Sequence	binding partners identified by affinity extraction
RWDPTRLLRFRFLRMLVRRSRPVRP (GFP fusion) [#40, anti-proliferative peptide tested as GFP fusion]	beta tubulin, importin beta 1 and beta 3, elongation factor tu, and ATP/ADP carrier protein, and a zinc finger protein
RLRRICSGILLIRRILGIFVRPVRP (GMDELYKEEAAKARLRRICSGILLIRRILGIFV; N-terminal biotin) [#88, Peptide 35, also called peptide 88; tested as GFP fusion]	beta-tubulin, actin, importin beta, and restin
GRGCIFRWRRGLRGMMRLFK (GFP fusion) [#41, anti-proliferative peptide tested as GFP fusion]	beta tubulin, importin beta subunits 1, 2, and 7, annexin II, calpactin/S-100, and the chaperonin BiP/GRP78
